Assay results reported in US20050261273A1, “Substituted urea and carbamate, phenacyl-2-hydroxy-3-diaminoalkane, and benzamide-2-hydroxy-3-diaminoalkane aspartyl-protease inhibitors” (priority 2004, published 2005).

Conditions: CF-1 mice, 10 μmol/kg IV tail vein, non-perfused brain, corrected for plasma volume
Protocol: In-life phase: Test compounds were administered to CF-1 (20-30 g) mice at 10 μmol/kg (4 to 7 mg/kg) following IV administration in the tail vein. Two time-points, 5 and 60 min, were collected post dose. Four mice were harvested for heparinized plasma and non-perfused brains at each time-point for a total of 8 mice per compound.
Analytical phase: Samples were extracted and evaporated to dryness, then reconstituted and injected onto a reverse phase chromatographic column while monitoring the effluent with a triple quadrupole mass spectrometer. […] The lower limit of quantitation (LOQ) is generally 1 ng/mL and 0.5 ng/g for the plasma and brain respectively. Data was reported in micromolar (μM) units. Brain levels were corrected for plasma volumes (16 μL/g).

CN1C(=O)CN=C(c2ccccc2)c2cc(Cl)ccc21 [Diazepam]
concentration level in the brain at 5 min (5 min post dose): 5481 nM | concentration level in the brain at 60 min (60 min post dose): 176 nM
